## Assay results

The results are deposited in PubChem (AID1224904; Broad Institute, 2016).

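Selective DUX4 reporter inhibition in doxycycline-induced 293T-iDUX4 cells, scored as Gaussia percent activity minus Italica percent activity, after a 24-hour treatment. The test concentration is not given here. Percent difference between the Gaussia and Italica channels; more negative values mean more selective suppression of the DUX4 reporter, and higher values mean less activity.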

Values are in %. How 0% and 100% were set is not given here. Common to all entries: measured here: selective DUX4 reporter inhibition. Part of the compounds only, not a random draw; the main read-out is not listed here.

{"smiles": "COc1cccc(-c2ccc(C3[C@@H]4CN(S(=O)(=O)c5ccccc5C)C[C@H]3N4)cc2)c1", "stereo": "stereo partly specified", "Gaussia minus Italica difference (%)": "-12.99"}
{"smiles": "COc1ccc(C#Cc2ccc([C@@H]3[C@H](CO)N4CCCCN(S(=O)(=O)c5cn(C)cn5)C[C@@H]34)cc2)cc1", "Gaussia minus Italica difference (%)": "24.1"}
{"smiles": "O=C(C[C@@H]1CC[C@H]2[C@@H](COC[C@H](O)CN2S(=O)(=O)c2ccc(Oc3ccccc3)cc2)O1)Nc1ccccc1", "Gaussia minus Italica difference (%)": "-8.541"}
{"smiles": "COc1ccccc1NC(=O)N[C@H]1CC[C@H](CCNS(=O)(=O)c2ccc(Cl)cc2)O[C@H]1CO", "Gaussia minus Italica difference (%)": "-16.48"}
{"smiles": "C[C@H](CO)N1C[C@H](C)[C@H](CN(C)Cc2ccc(C(F)(F)F)cc2)OCc2ccccc2-c2c(n(C)c3ccccc23)C1=O", "Gaussia minus Italica difference (%)": "-3.621"}
{"smiles": "COc1cccc(C#Cc2ccc([C@H]3[C@@H](CO)N4C(=O)CN(C(=O)Cc5ccccc5)C[C@H]34)cc2)c1", "Gaussia minus Italica difference (%)": "-3.759"}
{"smiles": "Cc1cccc(-c2ccc([C@H]3[C@@H](CO)N4CCCCN(CCC(F)(F)F)C[C@@H]34)cc2)c1", "Gaussia minus Italica difference (%)": "-16.38"}
{"smiles": "O=C(c1ccc(F)cc1)N1CCCCN2[C@H](CO)[C@@H](c3ccc(-c4ccccc4)cc3)[C@@H]2C1", "Gaussia minus Italica difference (%)": "-7.168"}
{"smiles": "COc1cccc(C#Cc2ccc([C@H]3[C@H]4CN(C(=O)C5CC5)CC(=O)N4[C@H]3CO)cc2)c1", "Gaussia minus Italica difference (%)": "-3.323"}
{"smiles": "COc1ccccc1CN1[C@H](CO)[C@H](c2ccccc2)C12CN(C(=O)Cc1ccccc1)C2", "Gaussia minus Italica difference (%)": "4.132"}
{"smiles": "C[C@@H](NC(=O)C[C@H]1C[C@H]2c3cc(NC(=O)Nc4ccccc4F)ccc3O[C@H]2[C@@H](CO)O1)c1ccccc1", "Gaussia minus Italica difference (%)": "-7.765"}
{"smiles": "COc1ccc2c3c([nH]c2c1)[C@@H](CO)N(S(=O)(=O)c1cn(C)cn1)CC31CCN(Cc2ccccc2)CC1", "Gaussia minus Italica difference (%)": "14.18"}
{"smiles": "O=C(C[C@H]1CC[C@@H](NC(=O)Nc2ccc(C(F)(F)F)cc2)[C@@H](CO)O1)NCc1cccc(F)c1", "Gaussia minus Italica difference (%)": "-3.798"}
{"smiles": "COc1ccc2c3c([nH]c2c1)[C@H](CO)N(Cc1ccccc1)CC31CCN(CC2CC2)CC1", "Gaussia minus Italica difference (%)": "18.79"}
{"smiles": "COc1cccc(S(=O)(=O)N2CC[C@@H]3[C@H](CO)Nc4ccc(C#Cc5cccnc5)cc4[C@@H]32)c1", "Gaussia minus Italica difference (%)": "-15.35"}
{"smiles": "C/C=C/c1ccccc1[C@H]1[C@@H](C#N)N(c2nc(CC)cs2)[C@@H]1CO", "Gaussia minus Italica difference (%)": "5.036"}
{"smiles": "O=C(C[C@H]1C[C@H]2c3cc(NC(=O)C4CCC4)ccc3O[C@H]2[C@@H](CO)O1)NCCc1ccccc1", "Gaussia minus Italica difference (%)": "-12.57"}
{"smiles": "O=S(=O)(c1ccccc1)N1CC2(C1)[C@H](c1ccccc1)[C@H](CO)N2CCC(F)(F)F", "Gaussia minus Italica difference (%)": "8.201"}
{"smiles": "COc1cccc(-c2ccc3c(c2)[C@@H]2[C@@H](CCN2S(=O)(=O)c2cccc(OC)c2)[C@H](CO)N3)c1", "Gaussia minus Italica difference (%)": "32.72"}
{"smiles": "C/C=C/c1ccc([C@H]2[C@@H](CO)N(CC3CCCC3)C23CN(C(=O)CC2CC2)C3)cc1", "Gaussia minus Italica difference (%)": "-14.33"}
{"smiles": "Cc1ccc(-c2ccc([C@@H]3[C@@H](CO)N4CCCCN(C(=O)Nc5ccccc5)C[C@@H]34)cc2)cc1", "Gaussia minus Italica difference (%)": "-7.373"}
{"smiles": "C[C@H](CO)N1C[C@H](C)[C@@H](CN(C)S(=O)(=O)Cc2ccccc2)OCc2ccccc2-c2c(n(C)c3ccccc23)C1=O", "Gaussia minus Italica difference (%)": "9.971"}
{"smiles": "C[C@H](CO)N1C[C@H](C)[C@H](CN(C)C(=O)NC2CCCCC2)OCc2ccccc2-c2c(n(C)c3ccccc23)C1=O", "Gaussia minus Italica difference (%)": "12.06"}
{"smiles": "O=C(c1ccccc1F)N1CC2(C1)[C@@H](c1ccccc1)[C@@H](CO)N2CC1CCCC1", "Gaussia minus Italica difference (%)": "-11.83"}
{"smiles": "CN1CCN(C(=O)C[C@H]2CC[C@H]3[C@@H](COC[C@H](O)CN3Cc3ccc(Oc4ccccc4)cc3)O2)CC1", "Gaussia minus Italica difference (%)": "-2.235"}
{"smiles": "O=S(=O)(c1cccs1)N1CCCCN2[C@@H](CO)[C@H](c3ccc(C4=CCCC4)cc3)[C@@H]2C1", "Gaussia minus Italica difference (%)": "-22.51"}
{"smiles": "C/C=C/c1ccc([C@@H]2[C@H](CO)N3CCCCN(S(=O)(=O)c4cccc(C)c4)C[C@@H]23)cc1", "Gaussia minus Italica difference (%)": "-12.24"}
{"smiles": "COc1ccc2c3c([nH]c2c1)[C@@H](CO)N(C(=O)Nc1ccc(F)cc1)CC31CN(Cc2cc(-c3ccccc3)on2)C1", "Gaussia minus Italica difference (%)": "-2.15"}

Some entries from above, unchanged:

SMILES,Gaussia minus Italica difference (%)
COc1cccc(-c2ccc(C3[C@@H]4CN(S(=O)(=O)c5ccccc5C)C[C@H]3N4)cc2)c1 (stereo partly specified),-12.99
C[C@H](CO)N1C[C@H](C)[C@H](CN(C)C(=O)NC2CCCCC2)OCc2ccccc2-c2c(n(C)c3ccccc23)C1=O,12.06
CN1CCN(C(=O)C[C@H]2CC[C@H]3[C@@H](COC[C@H](O)CN3Cc3ccc(Oc4ccccc4)cc3)O2)CC1,-2.235